The other results are listed elsewhere or left out.

Protein sequences, listed by entry. Tags and fused reporters are not part of them.
UniProt Q0JBA9, entry or part of it: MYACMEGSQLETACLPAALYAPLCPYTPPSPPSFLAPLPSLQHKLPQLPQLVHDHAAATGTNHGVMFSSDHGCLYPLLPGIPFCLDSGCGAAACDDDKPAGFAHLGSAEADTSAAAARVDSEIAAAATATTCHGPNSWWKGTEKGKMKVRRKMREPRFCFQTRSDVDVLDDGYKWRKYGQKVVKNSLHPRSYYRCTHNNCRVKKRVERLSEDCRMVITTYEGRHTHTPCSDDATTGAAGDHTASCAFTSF

In the assay the target is OsWRKY34 (Oryza sativa, UniProt Q0JBA9 1-250). Put plainly: protein-binding microarray (RPBM); PBS, 2% BSA, 51.3 ng/ul salmon testes DNA, 50 uM zinc acetate, 200 nM TF, 25 C, 1 h; high values mean tight binding. Particulars: protein: recombinant; tags: N-terminal polyhistidine and DsRed monomer fusion (pET32a); label: CyDye5-dUTP incorporated in the synthesized complementary strand; 3' TTTTT single-stranded linker to array surface; dsDNA, one strand shown. A digest of the protocol: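 A custom Agilent array was converted to double-stranded form by primer extension with Cy5-dUTP and blocked with 2% BSA. Protein at 200 nM in PBS with 2% BSA, salmon testes DNA and 50 µM zinc acetate was applied for 1 h at 25 °C, followed by washing. The proteins were polyhistidine–DsRed N-terminal fusions of transcription factors, expressed in E. coli BL21-CodonPlus and Ni–NTA-purified. The binding signal is per-feature fluorescence intensity (arbitrary units) from an Axon 4000B scanner.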
For the sequence “GAATTATAGCACACTACTTTATTAACTATGTTGTTACACACGGAGTCACCTAGTGCAG”, the binding signal was 9220 fluorescence intensity (a.u.).

As for “GCACATTTTGCATATCTTTTTTTTTCTCTCTGTGGAGAACCGGAGTCACCTAGTGCAG”, the binding signal was 8880 fluorescence intensity (a.u.). With “TTTCTCTCCATATGTCCTTTATAGATTGATTTGATAATTTCGGAGTCACCTAGTGCAG”, the binding signal is 8080 fluorescence intensity (a.u.).

Regarding “GCCCATGCGCGACCTCGCCACCATATATAAACCGCGCCAACGGAGTCACCTAGTGCAG”, the binding signal was 10200 fluorescence intensity (a.u.). Regarding “TAATCCTAATCTCATGCTTCTGCTTTCTCTATGTTTCTCTCGGAGTCACCTAGTGCAG”, the binding signal was 9360 fluorescence intensity (a.u.). The value for “TTCCTATTTGTATAGTCGCACTCCGTCGACACCATCTCCTCGGAGTCACCTAGTGCAG” was 8330 fluorescence intensity (a.u.).

Consider “AATGTATTCCTTTCCTATTTACAATAAAATTTATTGATGCCGGAGTCACCTAGTGCAG”, for which the binding signal was 9250 fluorescence intensity (a.u.).

Regarding “GCTCTGTTCTTCTCTGTTCTTCTCTATTCCTTCCAAATTCCGGAGTCACCTAGTGCAG”, the binding signal is 15400 fluorescence intensity (a.u.). As to “AGTCTGCTGGGTTGGAGGGCTTCGTCTCGGAATTGTTCCCCGGAGTCACCTAGTGCAG”, the binding signal is 10200 fluorescence intensity (a.u.). Then “CGGTAATATAAATACTGCGGTAACCTCCTTAAATTCAAATCGGAGTCACCTAGTGCAG”, with 8600 fluorescence intensity (a.u.). The value for “GCTGGTGGGCGGTGGATTCGGCGTAGGGAGGCGAGGCAGTCGGAGTCACCTAGTGCAG” was 8540 fluorescence intensity (a.u.). Then “TTTACCTTTTCCCAGTTTTCATTTTGGCGCGAGCCTTTCCCGGAGTCACCTAGTGCAG”, with 11200 fluorescence intensity (a.u.); and “ATCATGTTTCGTCCGTTTTATAATATAAGTTGTTTTGACTCGGAGTCACCTAGTGCAG”, with 11400 fluorescence intensity (a.u.). In the case of “CGCCGGATCTGCAACCACTGCCCACCACCTCCTAACCTCACGGAGTCACCTAGTGCAG”, the binding signal is 9730 fluorescence intensity (a.u.). Regarding “CATGTGTCCCACTTTTTTTTTGTATGAATGATATGTCGGTCGGAGTCACCTAGTGCAG”, the binding signal was 8030 fluorescence intensity (a.u.). As to “CAGTTTTGATCTAGTTCTTTCCATGTGCTTTGTCCTCACACGGAGTCACCTAGTGCAG”, the binding signal is 11200 fluorescence intensity (a.u.). On to “TCAGCCACCATGTTAACACCTCTCTGATTGCCACTATGCTCGGAGTCACCTAGTGCAG”, for which the binding signal is 8410 fluorescence intensity (a.u.). For “CAGCACCAACGTTCTCTTCGGCCGATTCGGCGATTGCATCCGGAGTCACCTAGTGCAG”, the binding signal was 8930 fluorescence intensity (a.u.). Consider “CCGGCCATAAACGCGAGCCCACTAAAAGACTCGGCCCATTCGGAGTCACCTAGTGCAG”, for which the binding signal is 8210 fluorescence intensity (a.u.).

For “TGGCTACCATCACTCATTGATCTCCTGTGCACATCGAAACCGGAGTCACCTAGTGCAG”, the binding signal was 9260 fluorescence intensity (a.u.). Turning to “CACAACACTAGCTCAACCTCCACCACCAGTTCAGATATGCCGGAGTCACCTAGTGCAG”, the binding signal was 9550 fluorescence intensity (a.u.).

Turning to “CCACCGCGTCCACATCTGCCTCGCCCTCGCGCCGCCGCTTCGGAGTCACCTAGTGCAG”, the binding signal was 10400 fluorescence intensity (a.u.).

As to “ACCGTCTAGACTCAAGCTTTACTGACGATATTAACTTGTTCGGAGTCACCTAGTGCAG”, the binding signal was 8430 fluorescence intensity (a.u.). As to “ATAGTTTCATTTTGATTCTTCCGCTCTCTGCTAGCTTCCACGGAGTCACCTAGTGCAG”, the binding signal was 11000 fluorescence intensity (a.u.). For “AACCACTGATTCGTTATTCAATACAAGCAACTTTATTTCTCGGAGTCACCTAGTGCAG”, the binding signal was 11600 fluorescence intensity (a.u.). Then “ATTTTGACTTTTTGGTTGCGCTATTTGATTACTCGTCTTACGGAGTCACCTAGTGCAG”, with 19400 fluorescence intensity (a.u.); and “ACGCCTCTTTTCTTCTGTCCTGTCTTCATCTCCTACCTAACGGAGTCACCTAGTGCAG”, with 10600 fluorescence intensity (a.u.); and “GGTGCCTGATATTTCTCCATTACCTTCCATGATCTCCACCCGGAGTCACCTAGTGCAG”, with 10700 fluorescence intensity (a.u.). “AATAGCATTCATCCATCAACTGAAGAACAAAGAGGCCATTCGGAGTCACCTAGTGCAG”: the binding signal is 10100 fluorescence intensity (a.u.).

For the sequence “AATATTGCTCTTCCATCTCTTGTCGGCATCATCTGTATAACGGAGTCACCTAGTGCAG”, the binding signal was 10400 fluorescence intensity (a.u.). As to “ATAGTCTCATTCATCCGGTGTTCCATGTGTCCCAGTTAAACGGAGTCACCTAGTGCAG”, the binding signal was 9430 fluorescence intensity (a.u.). Then “ACTCGAATTCACCTTCACCTTCAGCGCGAGCCGCGAGCGACGGAGTCACCTAGTGCAG”, with 10100 fluorescence intensity (a.u.); and “CATTATATATCCATGCATCACACACACACACACACATGCTCGGAGTCACCTAGTGCAG”, with 8450 fluorescence intensity (a.u.); and “AGTAATATAGTTCATGTTTTAGTTTTCGTTGTAGTCTATACGGAGTCACCTAGTGCAG”, with 8160 fluorescence intensity (a.u.). As to “CTTTTTTGCTTACACCGTTGTAAGTCCAGCAGCAAGGCCACGGAGTCACCTAGTGCAG”, the binding signal was 8550 fluorescence intensity (a.u.). Then “TCTTCCAACGGTTGCTCTCCTCTCTTCCGAGTTCCGACTTCGGAGTCACCTAGTGCAG”, with 8860 fluorescence intensity (a.u.); and “CGAATAGAAAAGCAACCGCAATCAAACCAAAATTCGCCCACGGAGTCACCTAGTGCAG”, with 10800 fluorescence intensity (a.u.).

Regarding “GCGTGTCTCTTATGGAGTTTTGATTTGTGTGCTGGTGACTCGGAGTCACCTAGTGCAG”, the binding signal was 12500 fluorescence intensity (a.u.). Then “CAACGTACTACGAGCTTTTCGTTCCATGTAACCGTCATCGCGGAGTCACCTAGTGCAG”, with 9100 fluorescence intensity (a.u.); and “GGGTTTTGCTTTTGCTGTTGTCTTGGGCTTGGGCCTTTGCCGGAGTCACCTAGTGCAG”, with 8660 fluorescence intensity (a.u.); and “GCTGTGGGGAGATGGGACTTTAGATTTTTGAAATTGATGACGGAGTCACCTAGTGCAG”, with 12000 fluorescence intensity (a.u.). For “GCAGCCCTCAATTTCTATGGCGATCGCCTCTGCTTCGTCGCGGAGTCACCTAGTGCAG”, the binding signal is 8440 fluorescence intensity (a.u.).

These data come from publication PMC7819943, “Rice protein-binding microarrays: a tool to detect cis-acting elements near promoter regions in rice”.
